# For at least one compound, name, drawing or mass did not settle the structure.
# System: C2Cl2 cells
# Experiment: Evaluation of muscle fiber diameter
# Type: cell-based
# Conditions: dexamethasone (DEX) at 10 μM (FIG. 1 legend); 3 days; vs vehicle control
# Method: The C2Cl2 myoblastic cells (ATCC CRL-1772) were seeded into glycerol-treated 8-well plates at a density of 10,000 cells per well and cultured in a DMEM medium containing glucose at 4.5 g/L and supplemented with fetal calf serum (10%) and antibiotics (penicillin and streptomycin).
# The cells are then placed in a glucose-depleted medium (DMEM containing 1 g/L of glucose) and devoid of serum in the presence of the test molecules or references (IGF-1 at the concentration of 10 ng/mL or dexamethasone 10 nM) for 3 days. At the end of the culture, the cells are rinsed and fixed with 2.5% glutaraldehyde/0.1% Triton solution for 1 hour at room temperature. The cell layer is covered with DAPI (fluorescent labeling of the cell nucleus). After storage in the dark for 16 hours in the cold, the slides are observed under a fluorescence microscope (Carl Zeiss, AxioVert 200) and the images are analyzed using the Axiovision 4.1 software to measure the diameter of the fibers.
# C2Cl2 cells are differentiated and treated with compound 1 for the last three days of differentiation.
smiles,measurement,value
C[C@@H]1C[C@H]2[C@@H]3CCC4=CC(=O)C=C[C@]4(C)[C@@]3(F)[C@@H](O)C[C@]2(C)[C@@]1(O)C(=O)CO [dexamethasone],"diameter of myotubes (muscle fiber diameter, FIG. 1)",significantly decreases

# — US10350184B2, “Derivatives used in the treatment of muscle atrophy” (METABRAIN RESEARCH, priority 2015, dated 2019)
